Measured values published in the supplement of paper PMC8728848.
Some of the results follow.

How the values were obtained:
Assay in all cases: glycan array binding signal (z-score within array); higher = stronger binding
Conditions in all cases: glycan notation: IUPAC condensed, linker removed
[1] = molecular target: Neu5Ac(a2-3)Gal(b1-3)[Fuc(a1-4)]GlcNAc(b1-3)Gal(b1-3)[Fuc(a1-4)]GlcNAc
Outline: (§1)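 The Consortium for Functional Glycomics database supplied 3228 glycan arrays, of which those lacking an available protein sequence were dropped. The binding signal, a within-array Z-score, was averaged across arrays of the same protein sequence and across linkers. Negative scores can be read as non-binding.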

[2] = molecular target: Neu5Ac(a2-3)Gal(b1-3)[Fuc(a1-4)]GlcNAc(b1-3)Gal(b1-4)[Fuc(a1-3)]GlcNAc
Outline: as §1

[3] = molecular target: Neu5Ac(a2-3)Gal(b1-3)[Neu5Ac(a2-3)Gal(b1-4)]GlcNAc
Outline: as §1

[4] = molecular target: Neu5Ac(a2-3)Gal(b1-3)[Neu5Ac(a2-6)]GalNAc
Outline: as §1

Neu5Ac(a2-3)Gal(b1-4)Glc = molecular target: Neu5Ac(a2-3)Gal(b1-4)Glc
Outline: as §1

[5] = molecular target: Neu5Ac(a2-3)Gal(b1-4)GlcNAc
Outline: as §1

[6] = molecular target: Neu5Ac(a2-3)Gal(b1-4)GlcNAc(b1-2)Man(a1-3)[GlcNAc(b1-2)Man(b1-4)GlcNAc(b1-2)Man(a1-6)]Man(b1-4)GlcNAc(b1-4)GlcNAc
Outline: as §1

[7] = molecular target: Neu5Ac(a2-3)Gal(b1-4)GlcNAc(b1-2)Man(a1-3)[Neu5Ac(a2-6)Gal(b1-4)GlcNAc(b1-2)Man(a1-6)]Man(b1-4)GlcNAc(b1-4)GlcNAc
Outline: as §1

[8] = molecular target: Neu5Ac(a2-3)Gal(b1-4)GlcNAc(b1-3)Gal
Outline: as §1

[9] = molecular target: Neu5Ac(a2-3)Gal(b1-4)GlcNAc(b1-3)Gal(b1-3)GlcNAc
Outline: as §1

[10] = molecular target: Neu5Ac(a2-3)Gal(b1-4)GlcNAc(b1-3)Gal(b1-4)GlcNAc
Outline: as §1

[11] = molecular target: Neu5Ac(a2-3)Gal(b1-4)GlcNAc(b1-3)Gal(b1-4)GlcNAc(b1-3)Gal(b1-4)GlcNAc
Outline: as §1

[12] = molecular target: Neu5Ac(a2-3)Gal(b1-4)GlcNAc(b1-3)Gal(b1-4)[Fuc(a1-3)]GlcNAc
Outline: as §1

[13] = molecular target: Neu5Ac(a2-3)Gal(b1-4)GlcNAc(b1-3)GalNAc
Outline: as §1

[14] = molecular target: Neu5Ac(a2-3)Gal(b1-4)GlcNAc(b1-6)[Gal(b1-3)]GalNAc
Outline: as §1

[15] = molecular target: Neu5Ac(a2-3)Gal(b1-4)GlcNAc(b1-6)[Neu5Ac(a2-3)Gal(b1-3)]GalNAc
Outline: as §1

[16] = molecular target: Neu5Ac(a2-3)Gal(b1-4)GlcNAc6S
Outline: as §1

[17] = molecular target: Neu5Ac(a2-3)Gal(b1-4)[Fuc(a1-3)]GlcNAc
Outline: as §1

[18] = molecular target: Neu5Ac(a2-3)Gal(b1-4)[Fuc(a1-3)]GlcNAc(b1-3)Gal
Outline: as §1

[19] = molecular target: Neu5Ac(a2-3)Gal(b1-4)[Fuc(a1-3)]GlcNAc(b1-3)Gal(b1-4)GlcNAc
Outline: as §1

[20] = molecular target: Neu5Ac(a2-3)Gal(b1-4)[Fuc(a1-3)]GlcNAc(b1-3)Gal(b1-4)[Fuc(a1-3)]GlcNAc(b1-3)Gal(b1-4)[Fuc(a1-3)]GlcNAc
Outline: as §1

[21] = molecular target: Neu5Ac(a2-3)Gal(b1-4)[Fuc(a1-3)]GlcNAc(b1-3)GalNAc
Outline: as §1

[22] = molecular target: Neu5Ac(a2-3)Gal(b1-4)[Fuc(a1-3)]GlcNAc(b1-6)[Gal(b1-3)]GalNAc
Outline: as §1

[23] = molecular target: Neu5Ac(a2-3)Gal(b1-4)[Fuc(a1-3)]GlcNAc6S
Outline: as §1

[24] = molecular target: Neu5Ac(a2-3)Gal6S(b1-4)GlcNAc
Outline: as §1

[25] = molecular target: Neu5Ac(a2-3)Gal6S(b1-4)[Fuc(a1-3)]GlcNAc
Outline: as §1

Neu5Ac(a2-3)GalNAc = molecular target: Neu5Ac(a2-3)GalNAc
Outline: as §1

[26] = molecular target: Neu5Ac(a2-3)GalNAc(b1-4)GlcNAc
Outline: as §1

[27] = molecular target: Neu5Ac(a2-3)[GalNAc(b1-4)]Gal(b1-4)Glc
Outline: as §1

[28] = molecular target: Neu5Ac(a2-3)[GalNAc(b1-4)]Gal(b1-4)GlcNAc
Outline: as §1

[29] = molecular target: Neu5Ac(a2-3)[GalNAc(b1-4)]Gal(b1-4)GlcNAc(b1-3)GalNAc
Outline: as §1

[30] = molecular target: Neu5Ac(a2-3)[Neu5Ac(a2-6)]GalNAc
Outline: as §1

Neu5Ac(a2-6)Gal = molecular target: Neu5Ac(a2-6)Gal
Outline: as §1

[31] = molecular target: Neu5Ac(a2-6)Gal(b1-3)GlcNAc(b1-3)[Gal(b1-4)GlcNAc(b1-6)]Gal(b1-4)Glc
Outline: as §1

Neu5Ac(a2-6)Gal(b1-4)Glc = molecular target: Neu5Ac(a2-6)Gal(b1-4)Glc
Outline: as §1

[32] = molecular target: Neu5Ac(a2-6)Gal(b1-4)GlcNAc
Outline: as §1

[33] = molecular target: Neu5Ac(a2-6)Gal(b1-4)GlcNAc(b1-2)Man(a1-3)Man(b1-4)GlcNAc(b1-4)GlcNAc
Outline: as §1

[34] = molecular target: Neu5Ac(a2-6)Gal(b1-4)GlcNAc(b1-2)Man(a1-3)[Gal(b1-4)GlcNAc(b1-2)Man(a1-6)]Man(b1-4)GlcNAc(b1-4)GlcNAc
Outline: as §1

B1: Layilin (Mus musculus), Q8C351 (protein)
chain: MQPGAALQAMLLAVLLAKPRDSKGRLLSASDLDPRGGQLVCRGGTRRPCYKVIYFHDAFQRLNFEEAKETCMEDGGQLVSIETEDEQRLIEKFIENLLASDGDFWIGLKRLEEKQSNNTACQDLYAWTDGSTSQFRNWYVDEPSCGSEVCVVMYHQPSAPPGIGGSYMFQWNDDRCNMKNNFICKYHDDKPSTTPSIWPGGEATEPATPLLPEETQKEDTKETFKERREAALNLAYILIPSIPLFLLLVVTSAVCWVWICRRKREQTDPSTKEQHTIWPTPRQENSPNLDVYNVIRKQSEADLAEPRPDLKNISFRVCSGEAMPDDMSCDYENIAVNPSESGFVTLASMESGFVTNDIYEFSPDRMGRSKESGWVENEIYY
[1]
  glycan array binding signal (z-score): -0.596
[2]
  glycan array binding signal (z-score): -1.13
[3]
  glycan array binding signal (z-score): 0.018
[4]
  glycan array binding signal (z-score): 0.175
Neu5Ac(a2-3)Gal(b1-4)Glc
  glycan array binding signal (z-score): -0.492
[5]
  glycan array binding signal (z-score): -0.203
[6]
  glycan array binding signal (z-score): -0.497
[7]
  glycan array binding signal (z-score): -0.343
[8]
  glycan array binding signal (z-score): 0.955
[9]
  glycan array binding signal (z-score): -0.17
[10]
  glycan array binding signal (z-score): -0.594
[11]
  glycan array binding signal (z-score): -1.11
[12]
  glycan array binding signal (z-score): 0.119
[13]
  glycan array binding signal (z-score): -0.963
[14]
  glycan array binding signal (z-score): -0.144
[15]
  glycan array binding signal (z-score): 0.253
[16]
  glycan array binding signal (z-score): 0.585
[17]
  glycan array binding signal (z-score): -0.387
[18]
  glycan array binding signal (z-score): -0.973
[19]
  glycan array binding signal (z-score): -0.212
[20]
  glycan array binding signal (z-score): 2.92
[21]
  glycan array binding signal (z-score): 1.82
[22]
  glycan array binding signal (z-score): 4.15
[23]
  glycan array binding signal (z-score): -0.418
[24]
  glycan array binding signal (z-score): -0.818
[25]
  glycan array binding signal (z-score): -0.666
Neu5Ac(a2-3)GalNAc
  glycan array binding signal (z-score): -0.499
[26]
  glycan array binding signal (z-score): -0.557
[27]
  glycan array binding signal (z-score): -0.643
[28]
  glycan array binding signal (z-score): -0.045
[29]
  glycan array binding signal (z-score): 0.49
[30]
  glycan array binding signal (z-score): -0.932
Neu5Ac(a2-6)Gal
  glycan array binding signal (z-score): -0.444
[31]
  glycan array binding signal (z-score): -0.887
Neu5Ac(a2-6)Gal(b1-4)Glc
  glycan array binding signal (z-score): 0.086
[32]
  glycan array binding signal (z-score): -0.655
[33]
  glycan array binding signal (z-score): -0.121
[34]
  glycan array binding signal (z-score): -0.033
